PubChem BioAssay AID1224830 – NIAID, 2016
Purpose: 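Host factors that control LPS-induced TNF expression in human macrophages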 (primary screen). Cell system: human THP-1 monocytic leukaemia cells, TNF dual-luciferase reporter clone, PMA-differentiated to macrophage-like cells. Reagents: siRNA pool against human genes, 50 nM. Time to read-out: LPS for 4 h, given about 3 days after siRNA transfection. Conditions: bacterial LPS (TLR4 ligand), 10 ng/ml. Measurement: 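TNF firefly reporter luminescence divided by renilla, normalised to the plate median, then turned into a robust z-score for each replicate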. Direction: TNF reporter robust z-score: higher = stronger TNF reporter response to LPS. Call rule: 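Each well counts as active if its z-score is over 2.8 or under -1.5; controls are left without a call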.
In all, the deposit lists about 18,000 reagents; below is an unselected part. In the full data, about 2,900 (16%) got an active call. 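Calls are made per well; low scores hint the gene aids the LPS response, high scores that it dampens it.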 Repeated entries: four replicate wells of each siRNA pool.

Gene	TNF reporter robust z-score	Outcome
FOXD1	0.34	inactive
FOXD1	0.06	inactive
FOXD1	-0.13	inactive
FOXD1	0.04	inactive
FABP1	-0.89	inactive
FABP1	-0.8	inactive
FABP1	-1.06	inactive
FABP1	-0.65	inactive
POLR1A	-0.36	inactive
POLR1A	0.84	inactive
POLR1A	0.34	inactive
POLR1A	2.29	inactive
WHAMM	0.06	inactive
WHAMM	0.87	inactive
WHAMM	0.68	inactive
WHAMM	0.93	inactive
VAV2	0.18	inactive
VAV2	-0.3	inactive
VAV2	-0.63	inactive
VAV2	-1.2	inactive
IL17RC	-0.42	inactive
IL17RC	-0.16	inactive
IL17RC	0.49	inactive
IL17RC	-0.36	inactive
IYD	0.66	inactive
IYD	1.22	inactive
IYD	1.26	inactive
IYD	-0.35	inactive
ECHS1	-0.19	inactive
ECHS1	0.22	inactive
ECHS1	0.07	inactive
ECHS1	1.57	inactive
F8A1		inactive
PLAC4	-0.96	inactive
PLAC4	-1.04	inactive
PLAC4	-0.89	inactive
RGS18	-0.34	inactive
RGS18	11.6	active
RGS18	-0.37	inactive
RGS18	-0.97	inactive
AKAP9	-0.39	inactive
AKAP9	-0.45	inactive
AKAP9	-0.65	inactive
AKAP9	-0.27	inactive
GPBP1L1	-0.67	inactive
GPBP1L1	-1.37	inactive
GPBP1L1	-0.4	inactive
GPBP1L1	-0.34	inactive
DLX2	-1.14	inactive
DLX2	-0.91	inactive
DLX2	-0.92	inactive
DLX2	-0.48	inactive
GNG7	0.19	inactive
GNG7	0.42	inactive
GNG7	-0.02	inactive
GNG7	0.35	inactive
KCNK10	-0.33	inactive
KCNK10	0.15	inactive
KCNK10	-0.25	inactive
KCNK10	0.25	inactive
KCTD16	0	inactive
KCTD16	-0.23	inactive
KCTD16	0.07	inactive
KCTD16	1.29	inactive
IMPDH1	1.51	inactive
IMPDH1	0.1	inactive
IMPDH1	0.6	inactive
IMPDH1	-0.25	inactive
THBS2	-0.79	inactive
THBS2	0.45	inactive
THBS2	-0.29	inactive
THBS2	0.53	inactive
MORC4	0.26	inactive
MORC4	0.24	inactive
MORC4	1.28	inactive
MORC4	3.39	active
AP3M2	-1.3	inactive
AP3M2	-0.87	inactive
AP3M2	-0.96	inactive
AP3M2	-0.64	inactive
BAP1	-0.14	inactive
BAP1	0.26	inactive
BAP1	-0.3	inactive
BAP1	1.6	inactive
PIP5K1C	-1.23	inactive
PIP5K1C	-0.52	inactive
PIP5K1C	-0.63	inactive
PIP5K1C	-0.97	inactive
TMEM116	-1.26	inactive
TMEM116	-1.41	inactive
TMEM116	-1.32	inactive
TMEM116	-1.56	active
CCDC87	1.11	inactive
CCDC87	0.5	inactive
CCDC87	-0.1	inactive
CCDC87	1.22	inactive
ERI1	-0.68	inactive
ERI1	0.17	inactive
ERI1	-0.13	inactive
ERI1	-0.17	inactive
ISYNA1	-0.6	inactive
ISYNA1	-1.12	inactive
ISYNA1	-0.42	inactive
ISYNA1	-0.72	inactive
KNCN	-1.57	active
KNCN	-1.72	active
KNCN	-1.58	active
KNCN	-1.51	active
PTEN	0.01	inactive
PTEN	-0.82	inactive
PTEN	-0.47	inactive
PTEN	-1.59	active
RPL15	-0.17	inactive
RPL15	0.32	inactive
RPL15	1.16	inactive
RPL15	0.37	inactive
GRM7	0.7	inactive
GRM7	1.54	inactive
GRM7	3.08	active
GRM7	1.23	inactive
CRYBA4	-0.86	inactive
CRYBA4	-0.97	inactive
CRYBA4	-0.36	inactive
CRYBA4	0.08	inactive
OR8S1	1.58	inactive
OR8S1	1.6	inactive
OR8S1	1.71	inactive
OR8S1	2.92	active
DHTKD1	0.11	inactive
DHTKD1	-0.91	inactive
DHTKD1	-1.07	inactive
DHTKD1	0.71	inactive
CELSR2	-0.85	inactive
CELSR2	-1.08	inactive
CELSR2	-0.68	inactive
FOXO4	-0.62	inactive
FOXO4	0.67	inactive
FOXO4	-0.69	inactive
FOXO4	1.01	inactive
KLF6	-0.27	inactive
KLF6	-0.13	inactive
KLF6	-0.3	inactive
KLF6	-0.04	inactive
